We go through 15 compounds from patent publication US20230324419A1, “METHOD FOR DIAGNOSING ACTING OF NERVONIC ACID AND USE THEREOF” (BAO FENG BIOTECH (BEIJING) CO., LTD, priority 2020, published 2023).

The data set in a line: Youden index / ROC analysis of differential serum lipids after acer truncatum bunge seed oil supplementation (UPLC-QTOF lipidomics). Format: in vivo, SD rats.
Setting [1] is: 3 days of acer truncatum bunge seed oil supplementation.
[2] abbreviates: 7 days of acer truncatum bunge seed oil supplementation.
Where [3] appears, read: 1 day of acer truncatum bunge seed oil supplementation.
[4] abbreviates: single serum lipid predicting supplementation, 1 day of acer truncatum bunge seed oil (nervonic acid 0.03 g/kg/d, gavage), NA vs CK group.

Under setting [1], `CCCCC/C=C\C/C=C\CCCCCCCCCC(=O)O[C@H](COC(=O)CCCCCCCCCCCCCCCCCCCC)COP(=O)(O)OC[C@H](N)C(=O)O` [PS(21:0/20:2(11Z,14Z))] had an AUC of 0.88, a sensitivity of 0.8 and a specificity of 1.
Under setting [1], TG(17:2(9Z,12Z)/18:1(9Z)/22:1(11Z)) showed an AUC of 1, a sensitivity of 1 and a specificity of 1.
Under setting [1], 18:1-Glc-Campesterol yielded an AUC of 1, a sensitivity of 1 and a specificity of 1.
As to “1,2-didocosanoyl-sn-glycero-3-phosphosulfocholine”, under setting [2], the AUC was found to be 1, the sensitivity turned out to be 1 and the specificity is recorded as 1.
For the compound SM(d18:2/24:0), under setting [1], the AUC is reported as 1, the sensitivity was 1 and the specificity came out at 1. Under setting [2], this compound registered an AUC of 1, a sensitivity of 1 and a specificity of 1.
Under setting [1], `CCCCCCCC/C=C\CCCCCCCCCCCCCC(=O)N[C@@H](CO)[C@H](O)/C=C/CCCCCCCCCCCCC` [Cer(d18:1/24:1(15Z))] registered an AUC of 1, a sensitivity of 1 and a specificity of 1. Further, under setting [2], the AUC is given as 1, the sensitivity is listed as 1 and the specificity was 1.
Consider `CC/C=C\C/C=C\C/C=C\C/C=C\C/C=C\C/C=C\CCC(=O)OC[C@@H](COC(=O)CCCCCCCCCCCCCCC)OC(=O)CCCCCC/C=C\C/C=C\C/C=C\CCCCC` [TG(16:0/20:3(8Z,11Z,14Z)/22:6(4Z,7Z,10Z,13Z,16Z,19Z))], for which, under setting [3], the sensitivity came out at 1 and the specificity turned out to be 0.8. The AUC under setting [4] is reported as 0.92.
Under setting [1], `CCCCC/C=C\C/C=C\C/C=C\CCCCCCC(=O)O[C@H](COC(=O)CCCCCCCCCCCCCCCCC)COP(=O)(O)OC1C(O)C(O)C(O)[C@@H](O)C1O` (stereo partly drawn) [PI(18:0/20:3(8Z,11Z,14Z))] displayed an AUC of 0.92, a sensitivity of 0.8 and a specificity of 1.
As for `CC/C=C\C/C=C\C/C=C\C/C=C\CCCCC(=O)O[C@H](COC(=O)CCCCCCC/C=C\CCCCCC)COC(=O)CCCCCCCCC/C=C\CCCCCCCCCC` [TG(16:1(9Z)/18:4(6Z,9Z,12Z,15Z)/22:1(11Z))], under setting [3], the sensitivity was 1 and the specificity is reported as 0.8. Also, the AUC under setting [4] is recorded as 0.88.
Under setting [3], `CC/C=C\C/C=C\C/C=C\C/C=C\C/C=C\C/C=C\CCC(=O)OC[C@@H](COC(=O)CCCCCCC/C=C\CCCCCC)OC(=O)CCCCC/C=C\C/C=C\C/C=C\C/C=C\C/C=C\CC` [TG(16:1(9Z)/22:5(7Z,10Z,13Z,16Z,19Z)/22:6(4Z,7Z,10Z,13Z,16 Z,19Z))] came in with a sensitivity of 1 and a specificity of 0.8. The AUC under setting [4] is listed as 0.96.
The corresponding values for `CC/C=C\C/C=C\C/C=C\C/C=C\C/C=C\CCCCCC(=O)OC[C@@H](COC(=O)CCCCCCC/C=C\CCCC)OC(=O)CCCCCCCCC/C=C\C/C=C\CCCCC` [TG(14:1(9Z)/20:2(11Z,14Z)/22:5(7Z,10Z,13Z,16Z,19Z))] are 1, 1 and 1.
On to SM(d17:1/24:1), for which, under setting [1], the AUC is 1, the sensitivity amounted to 1 and the specificity came out at 1. Under setting [2], the AUC stood at 1, the sensitivity was 1 and the specificity is 1.
Regarding `CCCCC/C=C\C/C=C\C/C=C\C/C=C\CCCC(=O)OC[C@@H](COC(=O)CCCC/C=C\C/C=C\C/C=C\CCCCC)OC(=O)CCCCCC/C=C\C/C=C\C/C=C\CCCCC` [TG(18:3(6Z,9Z,12Z)/20:3(8Z,11Z,14Z)/20:4(5Z,8Z,11Z,14Z))], under setting [3], the sensitivity was 1 and the specificity was 0.8. In addition, the AUC under setting [4] was 0.96.
Under setting [1], `CCCCCCCC/C=C\C/C=C\C/C=C\CCCC(=O)OC[C@H](COP(=O)([O-])OCC[N+](C)(C)C)OC(=O)CCCCCCCCCCCCCCCCC` [PC(20:3(5Z,8Z,11Z)/18:0)] returned an AUC of 0.88, a sensitivity of 0.8 and a specificity of 1.
On the same counts, the results for `CC/C=C\C/C=C\C/C=C\C/C=C\C/C=C\CCCC(=O)OC[C@H](COP(=O)([O-])OCC[N+](C)(C)C)OC(=O)CCCCCC/C=C\C/C=C\C/C=C\CCCCC` [PC(20:5(5Z,8Z,11Z,14Z,17Z)/20:3(8Z,11Z,14Z))] are 0.96, 1 and 0.8.
